{"source": "PubChem BioAssay AID1259425 (University of Nebraska Medical Center, 2018)", "assay": "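Seek colon cancer weak points whose silencing resembles KSR1 loss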 (primary screen)", "cells": "HCT116 human colon cancer cells", "knock-down reagent": "siRNA pool against human genes, 50 nM siRNA", "detection": "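After 50 nM siRNA pool, branched-DNA assay measures six marker transcripts per well, minus blank, normalised to the geometric mean of two housekeeping transcripts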", "reading the numbers": "BNIP3L mRNA: higher = more BNIP3L transcript after knockdown", "note": "Shown is a random part of about 14,000 reagents. Not all columns of the deposit are shown. Not stated in the record: the time to read-out."}
{"target gene": "BHLHE41 (basic helix-loop-helix family member e41)", "BNIP3L mRNA, set 1": 0.19}
{"target gene": "APOC1 (apolipoprotein C1)", "BNIP3L mRNA, set 1": 0.21}
{"target gene": "THAP11 (THAP domain containing 11)", "BNIP3L mRNA, set 1": 0.127}
{"target gene": "ZNF703 (zinc finger protein 703)", "BNIP3L mRNA, set 1": 0.288}
{"target gene": "TRIP4 (thyroid hormone receptor interactor 4)", "BNIP3L mRNA, set 1": 0.0796}
{"target gene": "ATG101 (autophagy related 101)", "BNIP3L mRNA, set 1": 0.134}
{"target gene": "CCDC136 (coiled-coil domain containing 136)", "BNIP3L mRNA, set 1": 0.206}
{"target gene": "SECTM1 (secreted and transmembrane 1)", "BNIP3L mRNA, set 1": 0.123}
{"target gene": "MRPS5 (mitochondrial ribosomal protein S5)", "BNIP3L mRNA, set 1": 0.0987}
{"target gene": "GAS8-AS1 (GAS8 antisense RNA 1)", "BNIP3L mRNA, set 1": 0.135}
{"target gene": "KLK14 (kallikrein related peptidase 14)", "BNIP3L mRNA, set 1": 0.106}
{"target gene": "SLC2A6", "BNIP3L mRNA, set 1": 0.15}
{"target gene": "GET4 (guided entry of tail-anchored proteins factor 4)", "BNIP3L mRNA, set 1": 0.0952}
{"target gene": "TAS2R7 (taste 2 receptor member 7)", "BNIP3L mRNA, set 1": 0.199}
{"target gene": "EPHX2 (epoxide hydrolase 2)", "BNIP3L mRNA, set 1": 0.129}
{"target gene": "GRSF1 (G-rich RNA sequence binding factor 1)", "BNIP3L mRNA, set 1": 0.121}
{"target gene": "TUBA4B (tubulin alpha 4b)", "BNIP3L mRNA, set 1": 0.117}
{"target gene": "LMBR1 (limb development membrane protein 1)", "BNIP3L mRNA, set 1": 0.142}
{"target gene": "PTOV1 (PTOV1 extended AT-hook containing adaptor protein)", "BNIP3L mRNA, set 1": 0.127}

Reformatted: 3 of the entries above.
BHLHE41 (basic helix-loop-helix family member e41): BNIP3L mRNA, set 1 = 0.19
APOC1 (apolipoprotein C1): BNIP3L mRNA, set 1 = 0.21
THAP11 (THAP domain containing 11): BNIP3L mRNA, set 1 = 0.127

Next records follow.
{"target gene": "LARP6 (La ribonucleoprotein 6, translational regulator)", "BNIP3L mRNA, set 1": 0.0529}
{"target gene": "FCGBP (Fc gamma binding protein)", "BNIP3L mRNA, set 1": 0.119}
{"target gene": "GBGT1", "BNIP3L mRNA, set 1": 0.0686}
{"target gene": "WRAP53 (WD repeat containing antisense to TP53)", "BNIP3L mRNA, set 1": 0.116}
{"target gene": "ATP6V1A (ATPase H+ transporting V1 subunit A)", "BNIP3L mRNA, set 1": 0.289}
{"target gene": "MAST4", "BNIP3L mRNA, set 1": 0.078}
{"target gene": "SLC7A11", "BNIP3L mRNA, set 1": 0.0483}
{"target gene": "PAGE1 (PAGE family member 1)", "BNIP3L mRNA, set 1": 0.0851}
{"target gene": "ABRA (actin binding Rho activating protein)", "BNIP3L mRNA, set 1": 0.0689}
{"target gene": "PEX11B (peroxisomal biogenesis factor 11 beta)", "BNIP3L mRNA, set 1": 0.0816}
{"target gene": "GDF11 (growth differentiation factor 11)", "BNIP3L mRNA, set 1": 0.1}
{"target gene": "TMEM38B (transmembrane protein 38B)", "BNIP3L mRNA, set 1": 0.176}
{"target gene": "SCUBE2 (signal peptide, CUB domain and EGF like domain containing 2)", "BNIP3L mRNA, set 1": 0.076}
{"target gene": "RAE1 (ribonucleic acid export 1)", "BNIP3L mRNA, set 1": 0.133}
{"target gene": "PIGU (phosphatidylinositol glycan anchor biosynthesis class U)", "BNIP3L mRNA, set 1": 0.118}
{"target gene": "NUP37 (nucleoporin 37)", "BNIP3L mRNA, set 1": 0.0857}
{"target gene": "SLC4A10", "BNIP3L mRNA, set 1": 0.184}
